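Malaria parasite (P. falciparum) lines kept in red blood cells; parasite DNA is measured by SYBR Green fluorescence after lysis, 72 h after compound addition.
Each compound was titrated across a series from about 0.000037 to 29 µM.
The number is the fitted AC50, the concentration giving a half-maximal change in signal; a lower value means higher potency, whether the curve shows a decrease or an increase.
Calls follow the curve class and fit quality: every row here is inconclusive, covering signal-raising curves and weak, poorly fitted, partial or highest-dose-only inhibition curves.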

Values are in nM.
Every entry below has the call inconclusive.
Only part of the assay is shown, chiefly results filed as inconclusive.
Potencies fitted to partial, single-point or poorly fitting curves are rough.

Compound | tested on / at | potency (nM) | remark
CN(C)C(=O)Nc1ccc(Cl)c(Cl)c1 | CP203 | 11995 | inhibitor, partial curve, poor fit
CN(C)C(=O)Nc1ccc(Cl)c(Cl)c1 | CP201 | 8492 | inhibitor, partial curve, poor fit
CN(C)C(=O)Nc1ccc(Cl)c(Cl)c1 | CP217 | 10000 | inhibitor, partial curve
CN(C)C(=O)Nc1ccc(Cl)c(Cl)c1 | N140 | 14125 | inhibitor, single point
CN(C)C(=O)Nc1ccc(Cl)c(Cl)c1 | W2 | 15101 | inhibitor, single point
CN(C)C(=O)Nc1ccc(Cl)c(Cl)c1 | CP191 | 10000 | inhibitor, partial curve
CN(C)C(=O)Nc1ccc(Cl)c(Cl)c1 | CP211 | 6012 | inhibitor, partial curve
CN(C)C(=O)Nc1ccc(Cl)c(Cl)c1 | DIV30 | 6746 | inhibitor, partial curve
CN1CCN(CCC=C2c3ccccc3Sc3ccc(S(=O)(=O)N(C)C)cc32)CC1 | TAB113 | 11220 | inhibitor, single point
CN1CCN(CCC=C2c3ccccc3Sc3ccc(S(=O)(=O)N(C)C)cc32)CC1 | 3D7 | 17782 | inhibitor, single point
CN1CCN(CCC=C2c3ccccc3Sc3ccc(S(=O)(=O)N(C)C)cc32)CC1 | CP217 | 11220 | inhibitor, single point
CN1CCN(CCC=C2c3ccccc3Sc3ccc(S(=O)(=O)N(C)C)cc32)CC1 | DIV30 | 15101 | inhibitor, single point
CN1CCN(CCC=C2c3ccccc3Sc3ccc(S(=O)(=O)N(C)C)cc32)CC1 | CP266 | 19011 | inhibitor, single point
CN1CCN(CCC=C2c3ccccc3Sc3ccc(S(=O)(=O)N(C)C)cc32)CC1 | CP305 | 16944 | inhibitor, single point
CN1CCN(CCC=C2c3ccccc3Sc3ccc(S(=O)(=O)N(C)C)cc32)CC1 | TAB109 | 10000 | inhibitor, single point
CN1CCN(CCC=C2c3ccccc3Sc3ccc(S(=O)(=O)N(C)C)cc32)CC1 | DFO2036 | 17782 | inhibitor, single point
CN1CCN(CCC=C2c3ccccc3Sc3ccc(S(=O)(=O)N(C)C)cc32)CC1 | CP260 | 10000 | inhibitor, single point
CN1CCN(CCC=C2c3ccccc3Sc3ccc(S(=O)(=O)N(C)C)cc32)CC1 | CP265 | 15848 | inhibitor, single point
CN1CCN(CCC=C2c3ccccc3Sc3ccc(S(=O)(=O)N(C)C)cc32)CC1 | CP335 | 15101 | inhibitor, single point
CN1CCN(CCC=C2c3ccccc3Sc3ccc(S(=O)(=O)N(C)C)cc32)CC1 | PC15 | 17782 | inhibitor, single point
CN1CCN(CCC=C2c3ccccc3Sc3ccc(S(=O)(=O)N(C)C)cc32)CC1 | CP201 | 11995 | inhibitor, single point
CN1CCN(CCC=C2c3ccccc3Sc3ccc(S(=O)(=O)N(C)C)cc32)CC1 | CP286 | 10000 | inhibitor, single point
CN1CCN(CCC=C2c3ccccc3Sc3ccc(S(=O)(=O)N(C)C)cc32)CC1 | CP215 | 19011 | inhibitor, single point
CN1CCN(CCC=C2c3ccccc3Sc3ccc(S(=O)(=O)N(C)C)cc32)CC1 | CP269 | 15101 | inhibitor, single point
CN1CCN(CCC=C2c3ccccc3Sc3ccc(S(=O)(=O)N(C)C)cc32)CC1 | PC26 | 16944 | inhibitor, single point
CN1CCN(CCC=C2c3ccccc3Sc3ccc(S(=O)(=O)N(C)C)cc32)CC1 | ECU | 11220 | inhibitor, single point
CN1CCN(CCC=C2c3ccccc3Sc3ccc(S(=O)(=O)N(C)C)cc32)CC1 | CP252 | 12589 | inhibitor, single point
CN1CCN(CCC=C2c3ccccc3Sc3ccc(S(=O)(=O)N(C)C)cc32)CC1 | C2A | 12589 | inhibitor, single point
CN1CCN(CCC=C2c3ccccc3Sc3ccc(S(=O)(=O)N(C)C)cc32)CC1 | CP256 | 10000 | inhibitor, single point
CN1CCN(CCC=C2c3ccccc3Sc3ccc(S(=O)(=O)N(C)C)cc32)CC1 | AS120 | 10000 | inhibitor, single point
CN1CCN(CCC=C2c3ccccc3Sc3ccc(S(=O)(=O)N(C)C)cc32)CC1 | CP250 | 12589 | inhibitor, single point
CN1CCN(CCC=C2c3ccccc3Sc3ccc(S(=O)(=O)N(C)C)cc32)CC1 | CP315 | 19011 | inhibitor, single point

2 of the entries, repeated:

With CN1CCN(CCC=C2c3ccccc3Sc3ccc(S(=O)(=O)N(C)C)cc32)CC1 [ECU] the assay gave potency 11220 nM (inhibitor, single point).
With CN1CCN(CCC=C2c3ccccc3Sc3ccc(S(=O)(=O)N(C)C)cc32)CC1 [C2A] the assay gave potency 12589 nM (inhibitor, single point).

The results are deposited in PubChem (AID504749; NCATS, 2011).